Reference: article PMC12179588
Results are given in words; binding and its absence hold for the method and conditions named. Binding seen in cells or lysates may run through a third protein. Here binding means that the protein was enriched with, or labelled near, the bait; the list need not be complete. Sequences can lack the tags named with a protein.

Protein sequences, listed by entry. Tags and fused reporters are not part of them.
UniProt Q6P5H2: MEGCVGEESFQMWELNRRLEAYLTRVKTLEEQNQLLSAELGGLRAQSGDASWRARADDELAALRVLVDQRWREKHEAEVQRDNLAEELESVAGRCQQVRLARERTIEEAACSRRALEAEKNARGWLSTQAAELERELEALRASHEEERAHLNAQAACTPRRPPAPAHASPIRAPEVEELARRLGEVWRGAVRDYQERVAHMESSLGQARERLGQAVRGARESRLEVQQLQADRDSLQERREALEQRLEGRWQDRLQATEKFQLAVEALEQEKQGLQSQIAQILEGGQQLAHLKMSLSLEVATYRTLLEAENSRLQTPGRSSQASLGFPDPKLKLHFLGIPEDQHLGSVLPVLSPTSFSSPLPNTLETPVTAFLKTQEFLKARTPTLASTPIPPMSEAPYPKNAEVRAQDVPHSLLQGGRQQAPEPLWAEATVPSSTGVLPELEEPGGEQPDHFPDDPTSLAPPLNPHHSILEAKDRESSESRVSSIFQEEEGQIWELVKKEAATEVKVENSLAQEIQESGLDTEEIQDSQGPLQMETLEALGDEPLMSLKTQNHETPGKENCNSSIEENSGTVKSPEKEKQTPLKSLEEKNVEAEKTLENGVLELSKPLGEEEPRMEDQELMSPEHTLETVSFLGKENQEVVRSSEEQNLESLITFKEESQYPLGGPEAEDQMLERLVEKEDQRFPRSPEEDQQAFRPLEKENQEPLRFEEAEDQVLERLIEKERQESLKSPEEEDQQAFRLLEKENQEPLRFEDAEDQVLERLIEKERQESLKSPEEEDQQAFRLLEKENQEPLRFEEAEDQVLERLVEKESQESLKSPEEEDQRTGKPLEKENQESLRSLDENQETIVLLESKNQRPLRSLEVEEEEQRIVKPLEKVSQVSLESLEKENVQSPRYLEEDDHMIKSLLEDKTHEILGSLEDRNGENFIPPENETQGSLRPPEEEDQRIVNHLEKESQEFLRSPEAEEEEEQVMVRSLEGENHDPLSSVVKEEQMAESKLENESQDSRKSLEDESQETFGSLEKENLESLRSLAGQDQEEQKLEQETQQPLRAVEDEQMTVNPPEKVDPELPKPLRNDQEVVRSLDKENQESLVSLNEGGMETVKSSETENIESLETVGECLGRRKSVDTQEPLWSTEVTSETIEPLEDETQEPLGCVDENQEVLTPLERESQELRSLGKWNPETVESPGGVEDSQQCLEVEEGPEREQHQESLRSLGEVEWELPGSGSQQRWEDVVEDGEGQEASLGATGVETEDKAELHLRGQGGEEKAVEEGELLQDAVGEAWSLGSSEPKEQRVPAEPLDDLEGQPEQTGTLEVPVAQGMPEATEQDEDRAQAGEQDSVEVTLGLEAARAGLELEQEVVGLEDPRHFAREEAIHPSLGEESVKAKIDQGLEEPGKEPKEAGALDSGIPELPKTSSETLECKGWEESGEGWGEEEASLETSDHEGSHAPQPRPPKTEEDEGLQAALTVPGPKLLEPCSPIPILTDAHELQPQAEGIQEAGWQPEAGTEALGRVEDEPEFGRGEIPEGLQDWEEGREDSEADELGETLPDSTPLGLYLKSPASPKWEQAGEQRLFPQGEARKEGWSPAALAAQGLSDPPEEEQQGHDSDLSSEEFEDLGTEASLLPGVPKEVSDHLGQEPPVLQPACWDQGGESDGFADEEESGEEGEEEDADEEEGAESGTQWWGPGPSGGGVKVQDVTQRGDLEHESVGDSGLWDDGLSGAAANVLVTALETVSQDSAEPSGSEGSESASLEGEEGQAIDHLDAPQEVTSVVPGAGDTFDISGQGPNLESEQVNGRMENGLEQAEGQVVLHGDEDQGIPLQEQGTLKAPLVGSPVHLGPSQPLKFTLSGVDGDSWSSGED
UniProt Q9QXS1: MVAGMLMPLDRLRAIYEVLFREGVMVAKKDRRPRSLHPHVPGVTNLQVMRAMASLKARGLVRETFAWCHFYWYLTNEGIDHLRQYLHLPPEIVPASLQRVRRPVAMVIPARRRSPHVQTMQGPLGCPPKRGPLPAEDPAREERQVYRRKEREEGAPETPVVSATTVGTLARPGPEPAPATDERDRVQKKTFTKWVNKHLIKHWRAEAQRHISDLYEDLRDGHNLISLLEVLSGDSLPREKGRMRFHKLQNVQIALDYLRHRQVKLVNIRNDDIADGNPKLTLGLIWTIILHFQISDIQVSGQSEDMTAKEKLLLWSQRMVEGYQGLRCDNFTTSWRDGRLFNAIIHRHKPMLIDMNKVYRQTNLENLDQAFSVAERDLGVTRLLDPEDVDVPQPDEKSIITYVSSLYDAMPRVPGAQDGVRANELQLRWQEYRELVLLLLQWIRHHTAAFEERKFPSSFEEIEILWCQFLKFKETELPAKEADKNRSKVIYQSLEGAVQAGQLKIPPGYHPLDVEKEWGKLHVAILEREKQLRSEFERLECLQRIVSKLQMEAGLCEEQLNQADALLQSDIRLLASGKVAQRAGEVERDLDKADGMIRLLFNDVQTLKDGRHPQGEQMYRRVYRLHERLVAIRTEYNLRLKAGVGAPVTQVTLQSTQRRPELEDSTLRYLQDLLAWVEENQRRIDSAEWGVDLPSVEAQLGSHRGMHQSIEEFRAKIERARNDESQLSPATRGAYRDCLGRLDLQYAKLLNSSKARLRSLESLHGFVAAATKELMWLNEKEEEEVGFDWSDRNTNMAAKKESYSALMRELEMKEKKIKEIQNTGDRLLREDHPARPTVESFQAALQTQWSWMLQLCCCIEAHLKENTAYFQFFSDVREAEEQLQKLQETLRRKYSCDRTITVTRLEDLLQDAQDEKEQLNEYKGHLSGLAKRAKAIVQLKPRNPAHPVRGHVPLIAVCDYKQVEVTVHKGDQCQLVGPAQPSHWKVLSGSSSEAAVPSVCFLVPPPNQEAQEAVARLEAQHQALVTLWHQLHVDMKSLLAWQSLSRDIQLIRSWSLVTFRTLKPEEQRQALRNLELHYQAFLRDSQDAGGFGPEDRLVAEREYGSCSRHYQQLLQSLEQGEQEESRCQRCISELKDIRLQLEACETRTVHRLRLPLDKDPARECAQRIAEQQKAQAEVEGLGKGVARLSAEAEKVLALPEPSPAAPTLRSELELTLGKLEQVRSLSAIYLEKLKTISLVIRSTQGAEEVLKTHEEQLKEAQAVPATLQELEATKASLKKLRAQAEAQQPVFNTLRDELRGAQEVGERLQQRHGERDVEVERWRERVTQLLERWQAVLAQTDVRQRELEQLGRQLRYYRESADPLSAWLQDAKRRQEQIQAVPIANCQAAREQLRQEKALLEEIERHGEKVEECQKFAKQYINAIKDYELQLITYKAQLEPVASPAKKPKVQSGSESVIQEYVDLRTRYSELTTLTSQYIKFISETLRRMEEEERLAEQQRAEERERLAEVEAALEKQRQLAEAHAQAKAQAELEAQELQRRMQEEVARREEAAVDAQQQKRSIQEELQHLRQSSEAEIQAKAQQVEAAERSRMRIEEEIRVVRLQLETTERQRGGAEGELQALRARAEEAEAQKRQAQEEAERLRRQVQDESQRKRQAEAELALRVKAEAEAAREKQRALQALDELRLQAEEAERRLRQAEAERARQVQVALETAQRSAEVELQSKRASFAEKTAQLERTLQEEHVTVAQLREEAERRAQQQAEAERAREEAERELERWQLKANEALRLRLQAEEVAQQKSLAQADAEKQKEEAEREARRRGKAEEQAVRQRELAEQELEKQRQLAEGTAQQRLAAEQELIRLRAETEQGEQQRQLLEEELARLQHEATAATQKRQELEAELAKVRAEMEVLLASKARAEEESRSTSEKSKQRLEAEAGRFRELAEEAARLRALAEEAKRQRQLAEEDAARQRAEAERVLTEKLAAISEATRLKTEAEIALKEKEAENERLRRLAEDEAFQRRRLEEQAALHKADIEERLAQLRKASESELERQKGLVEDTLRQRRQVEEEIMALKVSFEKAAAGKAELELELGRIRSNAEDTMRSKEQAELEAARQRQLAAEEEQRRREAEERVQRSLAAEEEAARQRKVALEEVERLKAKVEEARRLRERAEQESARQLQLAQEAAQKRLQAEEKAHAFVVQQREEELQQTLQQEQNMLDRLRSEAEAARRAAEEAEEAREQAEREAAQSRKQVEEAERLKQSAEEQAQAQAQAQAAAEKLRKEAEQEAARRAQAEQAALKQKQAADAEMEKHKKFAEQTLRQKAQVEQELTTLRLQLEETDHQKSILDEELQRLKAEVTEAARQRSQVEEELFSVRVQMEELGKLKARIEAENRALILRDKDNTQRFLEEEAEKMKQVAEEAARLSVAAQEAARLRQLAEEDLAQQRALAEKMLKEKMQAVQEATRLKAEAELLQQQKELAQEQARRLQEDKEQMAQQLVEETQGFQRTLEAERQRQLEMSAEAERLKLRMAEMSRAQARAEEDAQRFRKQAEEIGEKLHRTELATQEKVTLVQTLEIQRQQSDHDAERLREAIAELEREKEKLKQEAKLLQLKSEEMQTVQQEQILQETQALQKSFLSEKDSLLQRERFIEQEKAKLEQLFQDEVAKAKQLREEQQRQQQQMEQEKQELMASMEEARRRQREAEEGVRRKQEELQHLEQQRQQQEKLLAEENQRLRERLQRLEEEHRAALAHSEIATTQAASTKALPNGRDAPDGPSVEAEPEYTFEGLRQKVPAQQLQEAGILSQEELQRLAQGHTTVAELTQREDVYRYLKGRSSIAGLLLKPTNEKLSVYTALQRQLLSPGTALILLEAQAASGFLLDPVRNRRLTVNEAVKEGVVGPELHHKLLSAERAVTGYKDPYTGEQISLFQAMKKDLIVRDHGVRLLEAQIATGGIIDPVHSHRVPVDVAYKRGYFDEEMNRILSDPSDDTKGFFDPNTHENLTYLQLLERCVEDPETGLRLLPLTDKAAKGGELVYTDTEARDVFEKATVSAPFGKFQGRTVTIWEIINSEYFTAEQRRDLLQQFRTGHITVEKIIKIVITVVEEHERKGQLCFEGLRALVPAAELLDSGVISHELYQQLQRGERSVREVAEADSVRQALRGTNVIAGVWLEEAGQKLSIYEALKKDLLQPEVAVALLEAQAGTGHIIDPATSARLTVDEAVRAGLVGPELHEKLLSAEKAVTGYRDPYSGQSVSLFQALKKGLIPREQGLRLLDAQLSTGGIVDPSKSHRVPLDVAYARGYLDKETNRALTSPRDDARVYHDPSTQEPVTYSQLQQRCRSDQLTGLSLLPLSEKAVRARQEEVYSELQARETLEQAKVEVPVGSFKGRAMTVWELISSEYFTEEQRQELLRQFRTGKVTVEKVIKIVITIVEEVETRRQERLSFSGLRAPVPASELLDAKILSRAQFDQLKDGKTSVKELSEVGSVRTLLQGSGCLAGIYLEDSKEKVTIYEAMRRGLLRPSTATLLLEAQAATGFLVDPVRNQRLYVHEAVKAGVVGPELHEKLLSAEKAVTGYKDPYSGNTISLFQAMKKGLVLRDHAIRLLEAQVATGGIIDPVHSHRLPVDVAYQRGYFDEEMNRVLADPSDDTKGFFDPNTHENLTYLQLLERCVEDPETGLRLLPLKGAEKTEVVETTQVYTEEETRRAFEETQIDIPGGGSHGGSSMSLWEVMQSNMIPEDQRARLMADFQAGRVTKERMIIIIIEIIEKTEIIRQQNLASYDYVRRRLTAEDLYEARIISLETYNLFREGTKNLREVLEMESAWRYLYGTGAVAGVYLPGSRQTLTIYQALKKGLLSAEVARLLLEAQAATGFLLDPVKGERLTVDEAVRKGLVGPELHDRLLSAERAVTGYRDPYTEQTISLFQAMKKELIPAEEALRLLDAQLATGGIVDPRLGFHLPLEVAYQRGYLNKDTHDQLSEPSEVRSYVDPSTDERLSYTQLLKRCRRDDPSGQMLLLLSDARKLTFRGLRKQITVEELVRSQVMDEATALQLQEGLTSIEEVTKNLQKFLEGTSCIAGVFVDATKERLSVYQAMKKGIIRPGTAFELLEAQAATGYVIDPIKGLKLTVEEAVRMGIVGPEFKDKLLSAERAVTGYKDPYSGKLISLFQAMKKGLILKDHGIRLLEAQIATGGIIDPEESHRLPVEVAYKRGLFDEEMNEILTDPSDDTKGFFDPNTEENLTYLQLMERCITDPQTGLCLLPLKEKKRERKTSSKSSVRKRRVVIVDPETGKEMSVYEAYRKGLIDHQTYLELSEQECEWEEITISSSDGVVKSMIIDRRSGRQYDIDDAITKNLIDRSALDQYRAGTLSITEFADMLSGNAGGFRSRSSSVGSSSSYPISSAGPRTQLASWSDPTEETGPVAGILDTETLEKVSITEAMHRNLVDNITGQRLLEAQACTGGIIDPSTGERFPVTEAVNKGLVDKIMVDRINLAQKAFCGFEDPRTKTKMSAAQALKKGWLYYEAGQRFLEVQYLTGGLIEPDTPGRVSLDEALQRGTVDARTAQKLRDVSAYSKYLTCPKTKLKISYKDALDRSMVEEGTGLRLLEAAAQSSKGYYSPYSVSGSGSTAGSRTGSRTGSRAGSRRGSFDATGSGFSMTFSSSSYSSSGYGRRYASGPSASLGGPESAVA

Biological target: T1, full-length hAPE2 bearing 3 FLAG tags (human) (UniProt Q9UBZ4)
T1 sequence: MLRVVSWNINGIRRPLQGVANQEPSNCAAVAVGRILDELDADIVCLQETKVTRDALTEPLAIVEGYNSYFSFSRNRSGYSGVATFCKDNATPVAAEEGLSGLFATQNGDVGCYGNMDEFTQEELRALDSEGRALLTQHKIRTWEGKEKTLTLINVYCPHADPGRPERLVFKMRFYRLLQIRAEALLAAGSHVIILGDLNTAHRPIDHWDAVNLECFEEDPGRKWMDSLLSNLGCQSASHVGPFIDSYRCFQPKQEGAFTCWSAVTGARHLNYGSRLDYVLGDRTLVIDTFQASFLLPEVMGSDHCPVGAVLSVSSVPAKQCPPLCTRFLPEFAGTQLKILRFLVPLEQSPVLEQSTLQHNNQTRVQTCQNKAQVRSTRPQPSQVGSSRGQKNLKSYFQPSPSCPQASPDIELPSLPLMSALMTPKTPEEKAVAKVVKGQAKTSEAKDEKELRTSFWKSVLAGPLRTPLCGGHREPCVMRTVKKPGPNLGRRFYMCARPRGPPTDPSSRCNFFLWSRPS
Assay: affinity purification with mass spectrometry; HEI-OC1 cells transfected with PMEV-3FLAG-hAPE2; FLAG tag antibody pull-down, anti-IgG as control; SDS-PAGE bands digested in gel, LC/MS; hits at least five spectral counts and more than 2.5-fold over control

binding, binds:
Flnb (from UniProt Q80X90 1-2602)
Iqgap1 (from UniProt Q9JKF1 1-1657)
MYH10 (endogenous, HEI-OC1) (from UniProt Q61879 1-1976)
Nes (from UniProt Q6P5H2 1-1864)
Plec (from UniProt Q9QXS1 1-4691)
